# In the supplement of paper PMC4604168 (melanoma cell lines):
# Some of the results follow. Many values rest on one well or one pass, so single values are uncertain.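 Imaging used 1,536-well plates; nuclei positive for cleaved PARP by antibody were divided by total DNA-stained nuclei to yield the apoptosis fraction. Doses for screening kept most cells viable, and cell lines differ markedly in resting and induced cleaved-PARP levels.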
# What was measured:
# Assay in all cases: cleaved PARP positive nuclei fraction relative to DMSO control; melanoma cells; higher = more apoptosis
# Conditions in all cases: library dose: low library concentration; 72 h
# WM115 = system: WM115
# WM1716 = system: WM1716
# WM1745 = system: WM1745
# WM3526 = system: WM3526
# WM3619 = system: WM3619
# WM451Lu = system: WM451Lu
Compound,cleaved PARP positive nuclei fraction (WM115),cleaved PARP positive nuclei fraction (WM1716),cleaved PARP positive nuclei fraction (WM1745),cleaved PARP positive nuclei fraction (WM3526),cleaved PARP positive nuclei fraction (WM3619),cleaved PARP positive nuclei fraction (WM451Lu)
"NC(=O)c1ccc(N(C(N)=O)c2c(F)cccc2F)nc1-c1ccc(F)cc1F + COc1ccc2c(c1)CCC1C2CCC2(C)C(NCCCCCCN3C(=O)C=CC3=O)CCC12 [U73122] (first compound 0.4 µM, partner dose 0.4 µM)",76.8%,67%,117%,70.9%,105%,142%
"C[C@]1(O)C[C@@H](c2nc(-c3ccc4ccc(-c5ccccc5)nc4c3)c3c(N)nccn32)C1 + Cn1c(Nc2ccc(C(F)(F)F)cc2)nc2cc(Oc3ccnc(-c4ncc(C(F)(F)F)[nH]4)c3)ccc21 [CHIR265] (first compound 0.4 µM, partner dose 0.08 µM)",349%,51.3%,166%,69.9%,128%,28.9%
"Cn1sc(=O)n(Cc2ccccc2)c1=O + NC(=O)c1ccc(N(C(N)=O)c2c(F)cccc2F)nc1-c1ccc(F)cc1F [VX702] (first compound 0.4 µM, partner dose 0.4 µM)",167%,43.4%,104%,268%,82.5%,50.6%
"Cn1cnc2c(F)c(Nc3ccc(Br)cc3Cl)c(C(=O)NOCCO)cc21 [selumetinib] + CCc1ccc(CCOc2ccc(CC3SC(=O)NC3=O)cc2)nc1 [pioglitazone] (first compound 0.015 µM, partner dose 2 µM)",177%,63.9%,99.2%,99.2%,145%,359%
"Cn1cnc2c(F)c(Nc3ccc(Br)cc3Cl)c(C(=O)NOCCO)cc21 [selumetinib] + c1cc(-c2cnn3cc(-c4ccc(OCCN5CCCCC5)cc4)cnc23)ccn1 [Dorsomorphin] (first compound 0.015 µM, partner dose 0.4 µM)",66.8%,78.4%,103%,114%,101%,146%
"CC(=O)O[C@@]12CO[C@@H]1C[C@H](O)[C@@]1(C)C(=O)[C@H](O)C3=C(C)[C@@H](OC(=O)[C@H](O)[C@@H](NC(=O)OC(C)(C)C)c4ccccc4)C[C@@](O)([C@@H](OC(=O)c4ccccc4)[C@H]21)C3(C)C [Docetaxel] + Cn1cncc1[C@@](N)(c1ccc(Cl)cc1)c1ccc2c(c1)c(-c1cccc(Cl)c1)cc(=O)n2C [tipifarnib] (first compound 0.0001 µM, partner dose 0.01 µM)",317%,786%,157%,119%,150%,253%
"CC1(C)CCC(c2ccc(Cl)cc2)=C(CN2CCN(c3ccc(C(=O)NS(=O)(=O)c4ccc(N[C@H](CCN5CCOCC5)CSc5ccccc5)c(S(=O)(=O)C(F)(F)F)c4)cc3)CC2)C1 + O=C(Nc1ccccc1)c1cc([N+](=O)[O-])ccc1Cl [GW9662] (first compound 0.4 µM, partner dose 2 µM)",166%,63.9%,332%,86%,117%,40.6%
"CC1(C)CCC(c2ccc(Cl)cc2)=C(CN2CCN(c3ccc(C(=O)NS(=O)(=O)c4ccc(N[C@H](CCN5CCOCC5)CSc5ccccc5)c(S(=O)(=O)C(F)(F)F)c4)cc3)CC2)C1 + C=CCNC1=C2C[C@@H](C)C[C@H](OC)[C@H](O)[C@@H](C)/C=C(\C)[C@H](OC(N)=O)[C@@H](OC)/C=C\C=C(/C)C(=O)NC(=CC1=O)C2=O [Tanespimycin] (first compound 0.4 µM, partner dose 0.002 µM)",390%,140%,846%,59.6%,320%,109%
"CS(=O)(=O)c1ccc(C(=O)Nc2ccc(Cl)c(-c3ccccn3)c2)c(Cl)c1 [vismodegib] + NC1(c2ccc(-c3nc4ccn5c(=O)[nH]nc5c4cc3-c3ccccc3)cc2)CCC1 [MK2206] (first compound 1 µM, partner dose 0.4 µM)",133%,151%,84.5%,233%,109%,109%
"CC1(C)CCC(c2ccc(Cl)cc2)=C(CN2CCN(c3ccc(C(=O)NS(=O)(=O)c4ccc(N[C@H](CCN5CCOCC5)CSc5ccccc5)c(S(=O)(=O)C(F)(F)F)c4)cc3)CC2)C1 + O=C1NC(=O)/C(=C/c2ccc(-c3ccc(F)cc3O)o2)S1 [AS252424] (first compound 0.4 µM, partner dose 1 µM)",314%,163%,2070%,85.4%,142%,285%
"C[C@]1(O)C[C@@H](c2nc(-c3ccc4ccc(-c5ccccc5)nc4c3)c3c(N)nccn32)C1 + COc1ccc2c(c1)CCC1C2CCC2(C)C(NCCCCCCN3C(=O)C=CC3=O)CCC12 [U73122] (first compound 0.4 µM, partner dose 0.4 µM)",102%,66.9%,102%,106%,128%,485%
"NC(=O)c1ccc(N(C(N)=O)c2c(F)cccc2F)nc1-c1ccc(F)cc1F + CCCCCCCCCCCC1=C(O)C(=O)C=C(O)C1=O [Embelin] (first compound 0.4 µM, partner dose 1.2 µM)",48.1%,145%,166%,81.2%,97.8%,129%
"CC1(C)CCC(c2ccc(Cl)cc2)=C(CN2CCN(c3ccc(C(=O)NS(=O)(=O)c4ccc(N[C@H](CCN5CCOCC5)CSc5ccccc5)c(S(=O)(=O)C(F)(F)F)c4)cc3)CC2)C1 + CC(C)C[C@H](NC(=O)[C@H](Cc1ccccc1)NC(=O)c1cnccn1)B(O)O [Bortezomib] (first compound 0.4 µM, partner dose 0.001 µM)",371%,1660%,2000%,146%,922%,153%
"C[C@]1(O)C[C@@H](c2nc(-c3ccc4ccc(-c5ccccc5)nc4c3)c3c(N)nccn32)C1 + CN(c1ncccc1CNc1nc(Nc2ccc3c(c2)CC(=O)N3)ncc1C(F)(F)F)S(C)(=O)=O [PF562271] (first compound 0.4 µM, partner dose 0.08 µM)",14.3%,25.7%,159%,33.2%,94%,138%
"Cn1sc(=O)n(Cc2ccccc2)c1=O + CCN(CC)CCNC(=O)c1c(C)[nH]c(/C=C2\C(=O)Nc3ccc(F)cc32)c1C [sunitinib] (first compound 0.4 µM, partner dose 0.4 µM)",79.4%,28.5%,237%,31.2%,59.9%,59.1%
"Cn1cnc2c(F)c(Nc3ccc(Br)cc3Cl)c(C(=O)NOCCO)cc21 [selumetinib] + CO[C@H]1C[C@@H]2CC[C@@H](C)[C@@](O)(O2)C(=O)C(=O)N2CCCC[C@H]2C(=O)O[C@H]([C@H](C)C[C@@H]2CC[C@@H](OCCO)[C@H](OC)C2)CC(=O)[C@H](C)/C=C(\C)[C@@H](O)[C@@H](OC)C(=O)[C@H](C)C[C@H](C)/C=C/C=C/C=C/1C [everolimus] (first compound 0.015 µM, partner dose 0.02 µM)",646%,104%,123%,138%,140%,106%
"CC1(C)CCC(c2ccc(Cl)cc2)=C(CN2CCN(c3ccc(C(=O)NS(=O)(=O)c4ccc(N[C@H](CCN5CCOCC5)CSc5ccccc5)c(S(=O)(=O)C(F)(F)F)c4)cc3)CC2)C1 + CS(=O)(=O)CCNCc1ccc(-c2ccc3ncnc(Nc4ccc(OCc5cccc(F)c5)c(Cl)c4)c3c2)o1 [lapatinib] (first compound 0.4 µM, partner dose 0.8 µM)",390%,145%,812%,48.7%,104%,50.3%
"C[C@]1(O)C[C@@H](c2nc(-c3ccc4ccc(-c5ccccc5)nc4c3)c3c(N)nccn32)C1 + Clc1ccc(Nc2nnc(Cc3ccncc3)c3ccccc23)cc1 [vatalanib] (first compound 0.4 µM, partner dose 2 µM)",116%,115%,117%,21.1%,95.1%,51.7%
"CN(c1ncccc1CNc1nc(Nc2ccc3c(c2)CC(=O)N3)ncc1C(F)(F)F)S(C)(=O)=O + COCC[n+]1c2c(n(Cc3cnccn3)c1C)C(=O)c1ccccc1C2=O [YM155] (first compound 0.08 µM, partner dose 0.0004 µM)",309%,109%,115%,94.3%,101%,344%
"C[C@@H](N)c1ccc(C(=O)Nc2ccnc3[nH]ccc23)cc1 + CC(C)C[C@H](NC(=O)[C@H](Cc1ccccc1)NC(=O)c1cnccn1)B(O)O [Bortezomib] (first compound 0.4 µM, partner dose 0.001 µM)",69.2%,83.3%,143%,660%,322%,45.6%
"COc1ccc(C2=N[C@@H](c3ccc(Cl)cc3)[C@@H](c3ccc(Cl)cc3)N2C(=O)N2CCNC(=O)C2)c(OC(C)C)c1 [Nutlin-3] + Cn1c(=O)n(-c2ccc(C(C)(C)C#N)cc2)c2c3cc(-c4cnc5ccccc5c4)ccc3ncc21 [NVP-BEZ235] (first compound 0.1 µM, partner dose 0.004 µM)",144%,250%,89.7%,80%,92%,43.1%
"CC1(C)CCC(c2ccc(Cl)cc2)=C(CN2CCN(c3ccc(C(=O)NS(=O)(=O)c4ccc(N[C@H](CCN5CCOCC5)CSc5ccccc5)c(S(=O)(=O)C(F)(F)F)c4)cc3)CC2)C1 + O=C(O)[C@@H]1[O][Sb](=[O])([O][Sb]2(=[O])[O][C@H]([C@H](O)CO)[C@H](O)[C@H](C(=O)O)[O]2)[O][C@H]([C@H](O)CO)[C@@H]1O [stibogluconate] (first compound 0.4 µM, partner dose 2 µM)",479%,491%,926%,95.6%,127%,105%
"COc1ccc(C2=N[C@@H](c3ccc(Cl)cc3)[C@@H](c3ccc(Cl)cc3)N2C(=O)N2CCNC(=O)C2)c(OC(C)C)c1 [Nutlin-3] + CC1(C)NC(=O)N(c2ccc([N+](=O)[O-])c(C(F)(F)F)c2)C1=O [nilutamide] (first compound 0.1 µM, partner dose 1 µM)",158%,103%,235%,55.1%,125%,53.6%

# 2 entries from above, tab-delimited:
Compound	cleaved PARP positive nuclei fraction (WM115)	cleaved PARP positive nuclei fraction (WM1716)	cleaved PARP positive nuclei fraction (WM1745)	cleaved PARP positive nuclei fraction (WM3526)	cleaved PARP positive nuclei fraction (WM3619)	cleaved PARP positive nuclei fraction (WM451Lu)
C[C@]1(O)C[C@@H](c2nc(-c3ccc4ccc(-c5ccccc5)nc4c3)c3c(N)nccn32)C1 + Cn1c(Nc2ccc(C(F)(F)F)cc2)nc2cc(Oc3ccnc(-c4ncc(C(F)(F)F)[nH]4)c3)ccc21 [CHIR265] (first compound 0.4 µM, partner dose 0.08 µM)	349%	51.3%	166%	69.9%	128%	28.9%
CC1(C)CCC(c2ccc(Cl)cc2)=C(CN2CCN(c3ccc(C(=O)NS(=O)(=O)c4ccc(N[C@H](CCN5CCOCC5)CSc5ccccc5)c(S(=O)(=O)C(F)(F)F)c4)cc3)CC2)C1 + C=CCNC1=C2C[C@@H](C)C[C@H](OC)[C@H](O)[C@@H](C)/C=C(\C)[C@H](OC(N)=O)[C@@H](OC)/C=C\C=C(/C)C(=O)NC(=CC1=O)C2=O [Tanespimycin] (first compound 0.4 µM, partner dose 0.002 µM)	390%	140%	846%	59.6%	320%	109%
